Assay results reported in the supplement of paper PMC3334620.
Over roughly 33,000 sequences, “E-score (-0.5 to 0.5)” has its median near -0.016; the highest 2% begin near 0.3. The list shows a part of the results.

The sequences below were run against T1, Yer184c (UniProt P39961) (assay: PBM E-score (8-mer binding enrichment) (E-score (-0.5 to 0.5)); higher = stronger / more preferred TF binding). Conditions: protein concentration: 100 nM; construct: GST-full length.
T1 sequence: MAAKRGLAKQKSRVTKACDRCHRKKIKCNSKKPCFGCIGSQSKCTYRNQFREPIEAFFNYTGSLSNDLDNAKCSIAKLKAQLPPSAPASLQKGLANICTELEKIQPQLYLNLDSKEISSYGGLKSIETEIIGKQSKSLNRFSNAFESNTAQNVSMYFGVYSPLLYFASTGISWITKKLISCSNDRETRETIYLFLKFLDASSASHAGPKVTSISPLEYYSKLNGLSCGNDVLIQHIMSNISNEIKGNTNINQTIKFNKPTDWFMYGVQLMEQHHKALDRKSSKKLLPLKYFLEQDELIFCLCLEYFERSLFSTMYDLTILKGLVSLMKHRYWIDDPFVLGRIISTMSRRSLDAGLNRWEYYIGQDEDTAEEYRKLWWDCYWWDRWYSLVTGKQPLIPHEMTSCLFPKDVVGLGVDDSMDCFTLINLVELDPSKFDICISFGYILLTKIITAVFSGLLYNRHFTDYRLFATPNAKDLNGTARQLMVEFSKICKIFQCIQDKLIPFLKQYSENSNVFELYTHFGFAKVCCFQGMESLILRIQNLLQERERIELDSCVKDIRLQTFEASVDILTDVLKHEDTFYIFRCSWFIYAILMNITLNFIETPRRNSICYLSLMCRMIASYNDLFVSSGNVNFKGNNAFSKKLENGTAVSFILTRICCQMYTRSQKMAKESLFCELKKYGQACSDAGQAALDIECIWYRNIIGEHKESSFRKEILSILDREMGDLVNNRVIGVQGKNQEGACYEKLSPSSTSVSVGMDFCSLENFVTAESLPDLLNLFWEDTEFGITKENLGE
Procedure: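 Universal 'all 10-mer' protein binding microarrays (Agilent AMADID 015681) probed with GST-tagged S. cerevisiae TFs (full-length or DBD) made by in vitro transcription/translation (PURExpress), about 100-200 nM. Bound TF was detected with fluorescent anti-GST. Each ungapped 8-mer (which stands for itself and its reverse complement) is scored by the PBM enrichment score (E-score), a modified Wilcoxon-Mann-Whitney statistic from -0.5 to +0.5, computed with the Universal PBM Analysis Suite. Scale: above 0.35 generally sequence-specific binding.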

| Sequence | PBM E-score |
| --- | --- |
| ATACATCA | 0.00369 |
| GTCTTCAA | -0.0912 |
| CCTTCAGC | -0.152 |
| CAGACATA | -0.0208 |
| CCGCGGAG | 0.333 |
| GATCACGA | -0.145 |
| CGCGTAGC | -0.0173 |
| CCCTACGG | -0.139 |
| GACACTAC | 0.114 |
| CTAGAATA | 0.118 |
| ATACTCGC | 0.0477 |
| GGGCTCAA | -0.0175 |
| GGATCCAC | -0.119 |
| GATGCCGC | 0.106 |
| CAGAGGTA | -0.0358 |
| CGAGCTCG | 0.308 |
| GGCGTAGA | 0.0821 |
| CTAACACC | -0.111 |
| AATTCGCA | 0.171 |
| ACAGCTCC | 0.0429 |
| GATGTTCC | 0.239 |
| TACAATCA | 0.0495 |
| AAATGTAG | -0.241 |
| AAGAGATA | -0.12 |
| ATTCGTAC | 0.162 |

Exported bar-delimited: part of the list above
Sequence | PBM E-score
GGGCTCAA | -0.0175
CGAGCTCG | 0.308

Later entries.

| Sequence | PBM E-score |
| --- | --- |
| GAGCACTA | -0.0483 |
| ATCGCAAA | 0.107 |
| AAGATGGA | 0.0149 |
| GCTGCCCA | -0.15 |
| AGCGTTGG | -0.251 |
| GCTAATCA | 0.0116 |
| GCGCTGGA | -0.00416 |
| TATTGCCA | -0.0502 |
| ATTCGCTC | 0.056 |
| CGAAGTCA | 0.0999 |
| ATTGAGTG | 0.0206 |
| GATCAGGC | -0.0463 |
| AGTCTAGA | -0.0765 |
| TCCAAGGA | 0.0378 |
| GATCGACA | -0.0135 |
| CCATTTGA | -0.117 |
| CGTGCTAA | 0.0262 |
| GTCGCAGA | 0.0583 |
| AATCTTGT | 0.0931 |
| ACCCTCCC | 0.0834 |
| TACTCCAA | -0.186 |
| AACGAAGG | -0.353 |
| CTTCAGTC | -0.144 |
| TCTTCGCA | -0.0174 |
| ACGTCAAC | -0.0414 |

| Sequence | PBM E-score |
| --- | --- |
| GCAGAATA | 0.0436 |
| CAACTCAC | -0.0728 |
| ACGAGCCC | -0.112 |
| ATTCTATG | 0.0987 |
| AGGATATG | -0.172 |
| ATACCGAA | 0.322 |
| TGAACAAA | 0.223 |
| ATACGGGC | 0.0111 |
| CAGTCTGG | -0.159 |
| CTTTGCCC | -0.165 |
| AGCGCGGA | 0.0295 |
| ACGCACTA | -0.0578 |
| ATGTATGG | -0.118 |
| CCCCTGAA | -0.111 |
| ATCTATTA | 0.136 |
| AGACCCCC | -0.213 |
| CATCCAAG | -0.0693 |
| GCTAGTTA | 0.0114 |
| CCTTCAAG | -0.0749 |
| AGCACGAT | -0.131 |
| AAGGGTAG | -0.276 |
| ACGATGCA | 0.025 |
| ATAGTAGA | -0.0627 |
| ACTGTTGA | -0.0706 |
| AGTATCTG | -0.0852 |

| Sequence | PBM E-score |
| --- | --- |
| TATATGAA | 0.2 |
| GAGGTATA | -0.0667 |
| ATGTTCAA | 0.134 |
| CGTGGTTA | -0.148 |
| ACAATGCA | 0.136 |
| CAGGTTGG | -0.105 |
| CCGCACGG | 0.0506 |
| CCGCCTTA | -0.153 |
| CGAAAGCC | -0.0408 |
| AAGTTCCT | 0.0951 |
| AGTACTAA | 0.0533 |
| AAGACACG | 0.0503 |
| AGTCCGTC | 0.134 |
| AGATTCCA | 0.126 |
| TCTGGCCA | -0.199 |
| ATGGGGCG | -0.183 |
| ATCGACGC | -0.0262 |
| GCGATACC | -0.141 |
| CCTTAGCA | -0.035 |
| AGAACTGA | 0.119 |
| GGCCAGAC | 0.0143 |
| GGATTAAA | 0.18 |
| GCGGTTGA | 0.113 |
| ATTTAGTA | 0.328 |
| TATACGAA | 0.157 |

| Sequence | PBM E-score |
| --- | --- |
| GGCCAACC | -0.0334 |
| ACACTCCT | -0.0406 |
| AATGATAA | 0.283 |
| AATTCCAC | 0.198 |
| AAGTTCAT | 0.155 |
| AGGGAGTA | -0.2 |
| CACGTTGC | -0.129 |
| GGACCCCC | -0.249 |
| GAGCGCGC | 0.0371 |
| AGGCGGCC | -0.00396 |
| AGGTCGAC | -0.149 |
| ACTTGCAC | -0.0693 |
| AGACCACC | -0.127 |
| AAACGTAT | 0.0421 |
| ACCGTAAA | 0.0422 |
| ACTGGCAA | -0.0748 |
| AAATGTGG | -0.0232 |
| GCGCAAAA | 0.0977 |
| CTTGGGCC | -0.186 |
| AAATATGG | -0.132 |
| ATCAAGGG | 0.106 |
| CAGGATTA | 0.0532 |
| GTATCAAC | 0.00497 |
| CGAGCACC | -0.0271 |
| ACGACGAT | 0.111 |

Rewritten as tab-separated lines: entries from further up.
Sequence	PBM E-score
CCTTCAGC	-0.152
GGGCTCAA	-0.0175
ACGTCAAC	-0.0414
ACGAGCCC	-0.112
AAGACACG	0.0503
CCTTAGCA	-0.035
ACCGTAAA	0.0422

(continued)

| Sequence | PBM E-score |
| --- | --- |
| TACGCATA | -0.00972 |
| CTTGTCGC | -0.0873 |
| TATCGAAA | 0.178 |
| ACTGAGAT | -0.194 |
| AACTAAAG | 0.112 |
| AGGGAACA | 0.00359 |
| GCGCCCGC | -0.15 |
| GCGATCCC | -0.0563 |
| TCAATTGA | 0.144 |
| CCAGCGCG | 0.00494 |
| CATCGGTC | -0.0107 |
| GCAAGAAC | 0.146 |
| CATCTTCA | -0.195 |
| CAGAGATG | -0.0692 |
| CCTGACTC | -0.11 |
| AGACCTTC | -0.185 |
| GCCCATCA | -0.241 |
| AACTGAAA | 0.0988 |
| CCCAAGAC | -0.0238 |
| CTCTCGCA | -0.217 |
| CCCTTGTA | -0.242 |
| TAGGCACA | -0.165 |
| GTGATTTA | 0.193 |
| TCCGGGAA | 0.37 |
| CAGAGATC | -0.0176 |

| Sequence | PBM E-score |
| --- | --- |
| AATTTTTG | 0.188 |
| CCCTCACG | -0.193 |
| AATCGTGG | 0.0154 |
| GCATGCCC | 0.00887 |
| GGGTTGAC | -0.222 |
| AAAAGGAG | -0.0435 |
| AGACGACG | -0.185 |
| ATCCAGTA | -0.135 |
| CAGAAATA | -0.0284 |
| AACGGCAC | 0.0856 |
| CTCCGAAG | 0.303 |
| ATGCCCTC | -0.0705 |
| GAGCTCGA | 0.136 |
| CTACAGAA | 0.103 |
| ATCATCGC | -0.154 |
| CCTTTGTC | 0.0403 |
| CGGCCGGA | 0.402 |
| TCTAACCA | 0.0158 |
| CCTACAGC | -0.231 |
| AAACATTA | 0.093 |
| CCGCTTAG | -0.216 |
| CCCACAGG | -0.376 |
